Assay results taken from article PMC7835012.
Results are given in words; binding and its absence hold for the method and conditions named. In cells and extracts the contact can be indirect.

Amino acid sequences for entries named in this document (tags omitted). Residues count along the entry.
UniProt O35659, residues 22-463: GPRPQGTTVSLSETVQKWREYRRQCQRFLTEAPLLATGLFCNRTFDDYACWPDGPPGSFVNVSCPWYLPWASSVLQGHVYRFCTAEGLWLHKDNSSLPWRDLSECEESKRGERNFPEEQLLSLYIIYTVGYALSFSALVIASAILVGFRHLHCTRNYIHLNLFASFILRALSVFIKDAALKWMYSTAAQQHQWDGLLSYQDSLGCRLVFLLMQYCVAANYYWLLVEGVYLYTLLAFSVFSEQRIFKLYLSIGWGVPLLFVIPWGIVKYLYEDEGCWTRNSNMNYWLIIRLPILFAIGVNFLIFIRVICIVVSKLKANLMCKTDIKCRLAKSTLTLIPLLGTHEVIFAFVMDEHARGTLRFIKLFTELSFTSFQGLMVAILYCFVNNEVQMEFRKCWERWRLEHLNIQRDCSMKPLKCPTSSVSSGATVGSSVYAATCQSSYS
UniProt P32301, residues 22-463: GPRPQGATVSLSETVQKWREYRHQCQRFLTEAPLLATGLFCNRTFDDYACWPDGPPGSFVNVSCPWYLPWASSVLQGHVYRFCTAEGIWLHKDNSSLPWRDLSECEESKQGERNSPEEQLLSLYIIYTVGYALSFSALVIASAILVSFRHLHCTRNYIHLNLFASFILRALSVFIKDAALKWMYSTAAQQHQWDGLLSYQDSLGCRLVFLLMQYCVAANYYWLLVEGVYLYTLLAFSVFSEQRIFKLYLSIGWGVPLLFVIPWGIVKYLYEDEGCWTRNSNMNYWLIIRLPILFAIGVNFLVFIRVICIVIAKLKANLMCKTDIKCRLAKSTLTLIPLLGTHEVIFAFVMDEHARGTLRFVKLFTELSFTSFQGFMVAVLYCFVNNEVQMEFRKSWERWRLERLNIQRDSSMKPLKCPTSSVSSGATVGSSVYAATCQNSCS
UniProt Q62151, residues 23-402: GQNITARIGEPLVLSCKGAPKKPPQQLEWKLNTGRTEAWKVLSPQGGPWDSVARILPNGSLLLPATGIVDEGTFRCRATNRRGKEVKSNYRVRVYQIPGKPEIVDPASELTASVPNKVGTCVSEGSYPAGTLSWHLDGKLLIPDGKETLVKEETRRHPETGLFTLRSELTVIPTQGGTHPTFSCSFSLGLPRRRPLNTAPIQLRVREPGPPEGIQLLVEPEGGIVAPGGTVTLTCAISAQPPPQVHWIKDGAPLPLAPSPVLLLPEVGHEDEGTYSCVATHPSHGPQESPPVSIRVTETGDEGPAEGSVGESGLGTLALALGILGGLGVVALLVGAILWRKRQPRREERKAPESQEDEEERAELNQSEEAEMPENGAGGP
UniProt Q63495, residues 23-402: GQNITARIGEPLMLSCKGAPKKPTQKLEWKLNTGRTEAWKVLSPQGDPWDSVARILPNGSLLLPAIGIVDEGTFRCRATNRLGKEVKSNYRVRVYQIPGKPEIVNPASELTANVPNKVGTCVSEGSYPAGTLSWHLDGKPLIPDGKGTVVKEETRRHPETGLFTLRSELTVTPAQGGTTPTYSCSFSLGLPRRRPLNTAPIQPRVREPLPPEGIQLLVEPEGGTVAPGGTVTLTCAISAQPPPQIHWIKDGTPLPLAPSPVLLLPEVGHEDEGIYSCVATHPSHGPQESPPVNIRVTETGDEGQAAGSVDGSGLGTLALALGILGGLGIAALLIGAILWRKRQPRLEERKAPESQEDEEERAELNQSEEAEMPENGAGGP

How the values were obtained:
[1] = target: glucagon like peptide-1 receptor (GLP-1R), endogenous in HT22 cells (mouse (endogenous in HT22)) (UniProt O35659); assay: co-IP; PC12 or HT22 cell lysate (kit lysis buffer); anti-GLP-1R primary antibody, complex captured on protein A beads, boiled; western blot for RAGE
[2] = target: glucagon like peptide-1 receptor (GLP-1R), endogenous in PC12 cells (rat (endogenous in PC12)) (UniProt P32301); assay: as above

| Substance | binding [1] | binding [2] |
| --- | --- | --- |
| receptor of advanced glycation end products (RAGE), endogenous in HT22 cells (from UniProt Q62151 23-402) | no binding |  |
| receptor of advanced glycation end products (RAGE), endogenous in PC12 cells (from UniProt Q63495 23-402) |  | no binding |
